# Results deposited as PubChem BioAssay AID504784 (Drosophila RNAi Screening Center, 2011).
# Assay: 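Search for regulators of lipid droplet storage in oleate-fed fly cells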 (primary screen)
# Cells: Drosophila Kc167 embryonic cells
# Reagents: long dsRNA against Drosophila genes, about 250 ng dsRNA per well
# Duration: 4 days
# Challenge: cells fed 400 µM oleic acid bound to BSA
# Measurement: 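Microscope images give a droplet-to-nucleus area ratio, taken as log and converted to a screen-wide B-score; higher values mean greater lipid storage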
# Direction: droplet/nuclear area B-score: higher = more stored lipid (overstorage)
# The screen tested about 17,000 reagents; shown is an unselected part of those that have a named target and a result. 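Each column is one replicate's B-score; the combined score over replicates was not deposited, so single values may mislead.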 A plus sign joins genes that one reagent is predicted to hit.
gene,dsRNA,"droplet/nuclear area B-score, replicate 1","droplet/nuclear area B-score, replicate 2","droplet/nuclear area B-score, replicate 3"
Fibp,DRSC11031,-0.711,-0.406,-0.129
Es2,DRSC18663,0.254,1.65,0.568
cora,DRSC07597,-0.444,0.493,
CG9877,DRSC04587,1.88,0.0609,
prt,DRSC16894,-2.4,-1.57,
Sema2a,DRSC07551,-0.963,0.384,
ana,DRSC07579,-0.479,0.308,
CG5693,DRSC02878,-1.15,-1.17,
Rpp14b,DRSC15063,-0.173,0.546,
CG5382,DRSC15786,-0.00686,-2.95,
Gart,DRSC03481,-0.12,-0.658,
CG31871,DRSC02567,-0.439,-0.602,
CG31871,DRSC02571,1.69,0.981,
CG7857,DRSC10925,-0.2,-0.424,
CG33120,DRSC02073,0.295,0.0668,
Archease,DRSC16025,0.0441,0.252,
stx,DRSC18442,1.27,-1.72,1.35
stx,DRSC18443,1.31,-0.36,1.2
stx,DRSC23075,-0.245,3.79,
CG9890,DRSC04590,0.972,-0.0571,
velo,DRSC08841,-0.873,-1.32,
velo,DRSC09698,3.24,0.0507,
CG14180 (retired record),DRSC10179,-1.57,-2,
jim,DRSC11889,-1.83,-0.0428,-0.485
Dcps,DRSC12299,,1.9,
CG7916,DRSC01901,-0.32,1.88,
jumu,DRSC16651,0.91,1.48,
Cypl,DRSC08362,0.596,-0.00339,
Gr59b,DRSC04179,0.0154,0.683,
kel,DRSC03554,-2.85,-3.95,
svp,DRSC12899,0.547,-0.41,
svp,DRSC15311,0.00961,0.263,
svp,DRSC17075,-0.196,-0.591,2.48
snf,DRSC18835,1.19,-0.226,0.385
Vm34Ca,DRSC03475,0.334,-0.335,
SmD2,DRSC12536,-0.00729,-0.0343,
Mlc1,DRSC16740,2.12,-0.226,
CG14515,DRSC14867,0.117,-1.44,
r + CG13012,DRSC19531,-0.619,-0.00467,
tomboy20,DRSC14913,-0.00961,3.44,
CG13654,DRSC14654,-1.15,-0.996,
dmpd,DRSC06092,0.28,-0.554,
Bet3,DRSC10388,-1.89,0.468,
CG12219,DRSC17829,0.823,1.85,
CG33453,DRSC05782,-0.221,-0.685,
CG12398,DRSC19454,1.33,-1.19,
CG9117,DRSC03141,0.786,0.206,
CG6503,DRSC16056,1.1,-0.793,
CG9213,DRSC20170,0.00298,0.439,0.112
CG31845 (retired record),DRSC22257,-0.0269,1.32,
CG31845 (retired record),DRSC23074,-0.756,,
Mvl,DRSC16752,0.269,-0.0314,
Obp28a,DRSC03394,0.945,0.187,
CG17601,DRSC20639,-0.0682,-0.148,
HP1c,DRSC16166,0.233,-0.254,-1.75
red,DRSC14477,0.426,-4.28,
red,DRSC23177,-0.175,-0.557,
